Experimental data taken from article PMC8500230.

Protein sequences, listed by entry. Tags and fused reporters are not part of them. Lines headed by an entry give the natural chain unless they say otherwise; changes in a name come on top.
UniProt F4J4R5: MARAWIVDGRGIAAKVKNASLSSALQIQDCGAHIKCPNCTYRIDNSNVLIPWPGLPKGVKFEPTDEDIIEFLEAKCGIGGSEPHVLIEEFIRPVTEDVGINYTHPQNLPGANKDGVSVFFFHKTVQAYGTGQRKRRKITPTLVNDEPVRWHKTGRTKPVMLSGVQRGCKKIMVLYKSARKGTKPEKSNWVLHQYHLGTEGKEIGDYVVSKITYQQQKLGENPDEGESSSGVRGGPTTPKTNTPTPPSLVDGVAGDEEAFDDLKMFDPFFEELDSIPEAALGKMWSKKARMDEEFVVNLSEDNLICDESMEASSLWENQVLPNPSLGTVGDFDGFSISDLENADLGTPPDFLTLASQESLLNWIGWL

Legend:
Assay in all cases: affinity purification with mass spectrometry; tandem affinity purification (GS^rhino tag) from Arabidopsis PSB-D cell suspension cultures expressing the tagged bait under the 35S promoter; 30 uM cisplatin added 16 h before harvest; 100 mg total protein extract; on-bead digest, LC-MS/MS; in …
[1] = target: N-terminally tagged LIN52A (TAP bait) (Arabidopsis thaliana)
[2] = target: T1, C-terminally tagged TCX5 (TAP bait) (Arabidopsis thaliana) (UniProt Q9SZD1)
T1 sequence: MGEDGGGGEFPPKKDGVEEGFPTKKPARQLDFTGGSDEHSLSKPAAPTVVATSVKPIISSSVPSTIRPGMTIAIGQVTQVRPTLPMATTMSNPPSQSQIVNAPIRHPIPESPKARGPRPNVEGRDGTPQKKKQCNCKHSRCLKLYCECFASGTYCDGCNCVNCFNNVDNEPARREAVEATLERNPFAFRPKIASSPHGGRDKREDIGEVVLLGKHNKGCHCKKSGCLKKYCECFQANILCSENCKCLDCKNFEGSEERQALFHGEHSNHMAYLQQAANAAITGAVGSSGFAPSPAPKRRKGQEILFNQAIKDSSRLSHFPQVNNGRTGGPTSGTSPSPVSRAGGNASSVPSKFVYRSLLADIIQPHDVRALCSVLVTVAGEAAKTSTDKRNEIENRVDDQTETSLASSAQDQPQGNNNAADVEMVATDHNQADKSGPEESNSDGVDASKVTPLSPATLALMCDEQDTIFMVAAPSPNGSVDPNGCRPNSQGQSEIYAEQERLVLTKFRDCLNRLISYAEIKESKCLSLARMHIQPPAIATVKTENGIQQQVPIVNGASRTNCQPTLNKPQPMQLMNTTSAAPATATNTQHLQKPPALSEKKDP

[3] = target: T2, N-terminally tagged TCX5 (TAP bait) (Arabidopsis thaliana) (UniProt Q9SZD1)
T2 sequence: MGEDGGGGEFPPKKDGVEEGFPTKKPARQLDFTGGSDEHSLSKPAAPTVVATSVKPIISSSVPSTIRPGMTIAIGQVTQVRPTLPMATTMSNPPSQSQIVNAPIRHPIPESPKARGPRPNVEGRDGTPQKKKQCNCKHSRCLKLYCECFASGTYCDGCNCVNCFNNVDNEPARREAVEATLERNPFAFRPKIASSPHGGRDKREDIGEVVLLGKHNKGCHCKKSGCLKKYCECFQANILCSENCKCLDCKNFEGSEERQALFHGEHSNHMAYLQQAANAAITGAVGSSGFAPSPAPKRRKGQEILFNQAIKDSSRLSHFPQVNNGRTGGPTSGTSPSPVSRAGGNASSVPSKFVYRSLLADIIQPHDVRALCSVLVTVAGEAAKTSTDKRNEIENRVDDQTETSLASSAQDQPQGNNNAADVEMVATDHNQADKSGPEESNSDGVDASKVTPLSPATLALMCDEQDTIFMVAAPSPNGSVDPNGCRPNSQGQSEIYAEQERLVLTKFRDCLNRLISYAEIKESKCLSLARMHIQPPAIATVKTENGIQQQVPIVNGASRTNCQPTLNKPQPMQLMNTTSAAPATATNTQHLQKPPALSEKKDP

[4] = target: tagged LIN52A (TAP bait, tag end not told for this result) (Arabidopsis thaliana)
[5] = target: tagged NAC044 (TAP bait, tag end not told for this result) (Arabidopsis thaliana)
[6] = target: C-terminally tagged NAC044 (TAP bait) (Arabidopsis thaliana) (UniProt F4J4R5)

binding [1]: binds
binding [2]: binds
binding [3]: binds
B1: MYB3R1 (protein, UniProt Q9S7G7 1-776)
chain: MKREMKAPTTPLESLQGDLKGKQGRTSGPARRSTKGQWTPEEDEVLCKAVERFQGKNWKKIAECFKDRTDVQCLHRWQKVLNPELVKGPWSKEEDNTIIDLVEKYGPKKWSTISQHLPGRIGKQCRERWHNHLNPGINKNAWTQEEELTLIRAHQIYGNKWAELMKFLPGRSDNSIKNHWNSSVKKKLDSYYASGLLDQCQSSPLIALQNKSIASSSSWMHSNGDEGSSRPGVDAEESECSQASTVFSQSTNDLQDEVQRGNEEYYMPEFHSGTEQQISNAASHAEPYYPSFKDVKIVVPEISCETECSKKFQNLNCSHELRTTTATEDQLPGVSNDAKQDRGLELLTHNMDNGGKNQALQQDFQSSVRLSDQPFLSNSDTDPEAQTLITDEECCRVLFPDNMKDSSTSSGEQGRNMVDPQNGKGSLCSQAAETHAHETGKVPALPWHPSSSEGLAGHNCVPLLDSDLKDSLLPRNDSNAPIQGCRLFGATELECKTDTNDGFIDTYGHVTSHGNDDNGGFPEQQGLSYIPKDSLKLVPLNSFSSPSRVNKIYFPIDDKPAEKDKGALCYEPPRFPSADIPFFSCDLVPSNSDLRQEYSPFGIRQLMISSMNCTTPLRLWDSPCHDRSPDVMLNDTAKSFSGAPSILKKRHRDLLSPVLDRRKDKKLKRAATSSLANDFSRLDVMLDEGDDCMTSRPSESPEDKNICASPSIARDNRNCASARLYQEMIPIDEEPKETLESGGVTSMQNENGCNDGGASAKNVSPSLSLHIIWYQL

binding [4]: binds
binding [5]: binds
B2: AT2G22360 (DJA6) (protein, UniProt Q9SJZ7 83-442)
chain: ADADYYSVLGVSKNATKAEIKSAYRKLARNYHPDVNKDPGAEEKFKEISNAYEVLSDDEKKSLYDRYGEAGLKGAAGFGNGDFSNPFDLFDSLFEGFGGGMGRGSRSRAVDGQDEYYTLILNFKEAVFGMEKEIEISRLESCGTCEGSGAKPGTKPTKCTTCGGQGQVVSAARTPLGVFQQVMTCSSCNGTGEISTPCGTCSGDGRVRKTKRISLKVPAGVDSGSRLRVRGEGNAGKRGGSPGDLFVVIEVIPDPILKRDDTNILYTCKISYIDAILGTTLKVPTVDGTVDLKVPAGTQPSTTLVMAKKGVPVLNKSNMRGDQLVRVQVEIPKRLSKEEKKLIEELADMSKNKTANSTSR

binding [6]: binds
B3: SOG1 (protein, UniProt Q6NQK2 1-449)
chain: MAGRSWLIDSNRIATKIMSASASSDPRQVVWKSNPSRHCPKCQHVIDNSDVVDDWPGLPRGVKFDPSDPEIIWHLLAKSGLSGLSSHPFIDEFIPTVNQDDGICYTHPKNLPGVKSDGTVSHFFHKAIKAYSTGTRKRRKIHDDDFGDVRWHKTGRTKPVVLDGVQRGCKKIMVLYGGKAVKTNWVMHQYHLGIEEDEKEGDYVVSKIFYQQPQQLVVKRGDKAEQEVSEDIFAAVTPTADPVTPKLATPEPRNAVRICSDSHIASDYVTPSDYVSAHEVSLAETSEVMCMEDEVQSIQPNHERPSSGPELEHGLENGAKEMLDDKEEQEKDRDNENQGEEDPTWFDSGSQFILNSQQLVEALSLCDDLLGSQDREENTNSGSLKDKQPCIADYAHLGPEDFKRDLEECQKIVLDPSNIELDTPPEFRLSQLEFGSQDSFLAWGTGKTD

No constants are given. Whether binding was seen depends on the method and setting. Binding seen in cells or lysates may run through a third protein. Here binding means that the protein was enriched with, or labelled near, the bait; the list need not be complete. For part of these data: Sequences can lack the tags named with a protein. Each block holds one binder with its values, some of them ahead of it.
